PubChem BioAssay AID652259 | Drosophila RNAi Screening Center | 2013

- Screen: 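Knock-downs that push a Wingless-driven reporter up or down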 (primary screen)
- Cells: Drosophila clone 8 imaginal disc epithelial cells
- Reagent: long dsRNA against Drosophila genes
- Challenge: pathway stimulated by co-transfected Wingless expression plasmid
- Detection: 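Dual luciferase reads per well after Wingless plasmid stimulation: reporter firefly light and Renilla control light; activity is firefly divided by Renilla, a ratio not deposited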
- Scale: firefly reporter light: higher = more Wg reporter light, before normalisation; Renilla control light: higher = more transfected or surviving cells
- Active means: 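Strong candidates differ from their plate mean by at least two out of four per-plate statistical tests; weak candidates meet just one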
- Calls: active = candidate regulator (raises or lowers reporter); inactive = not a candidate
In all, the deposit lists about 22,000 reagents; below is a random part of those that have a named target and a result. Over the whole deposit, 233 (1.1%) were called active. 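Light values are raw, unnormalised plate reads; the ratio scores behind the reporter calls were not deposited.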 A number with no mark means an inactive call. Names joined by + are all predicted targets of the reagent. The record does not give: the amount of reagent, the time to read-out, the dose of the treatment.

Target gene	DRSC id	reporter change call, replicate 1	firefly reporter light, replicate 1	firefly reporter light, replicate 2	Renilla control light, replicate 1	Renilla control light, replicate 2
CG3534	DRSC15494		10843		2967	
Adgf-E	DRSC05973		7400		2839	
Nach	DRSC07478		5584		1818	
PGRP-LA	DRSC10327		6632		3872	
PGRP-LA	DRSC10414		7323		4380	
Ptp61F	DRSC08683		5381		1752	
Act42A	DRSC04835		1868	5506	709	2204
olf186-M	DRSC07657		6680		1952	
NimA	DRSC01353		12965		7395	
NimA	DRSC22170		7.39e5	7.81e5	3.07e5	2.85e5
mgl	DRSC17800		24232		11076	
mgl	DRSC17823		1531	7268	600	1621
mgl	DRSC17859		20519		8992	
mgl	DRSC18004		18432		9792	
CG12341	DRSC06133		3925	7017	972	3179
CG15336	DRSC18019		23909		9484	
JMJD5	DRSC08372		6086		2946	
lwr	DRSC00828		22183		4550	
lncRNA:sphinx	DRSC17199		19188		12103	
Pstk + Tim9b	DRSC19504		2841	7120	1074	1936
Pstk + Tim9b	DRSC20292		22931		11606	
Cdk5alpha	DRSC03290		2345	6320	715	2816
CG15549	DRSC15087		8768		3208	
lncRNA:CR42735 (retired record)	DRSC00921		16721		7334	
Obp50e	DRSC06434		6125		2012	
Mcm10	DRSC03162		8860		2921	
Rpn6	DRSC07541		8469		2186	
meso18E	DRSC20351		14210		7495	
mora	DRSC16594		17377		13786	
CG13170	DRSC06298		4464		2376	
CG7239	DRSC03038		9993		1442	
CG9521	DRSC20196		21392		8484	
CG30046	DRSC06691		3508		1408	
snoRNA:Me28S-C3420b + RpS11	DRSC07396	Wg reporter activity lowered	8082		3644	
Cpr51A	DRSC05969		8083		2512	
Rel	DRSC16819		7222		2315	
CG7182	DRSC10780		2364		1367	
CG34286	DRSC13372		7027		2982	
CG34286	DRSC21790		2.03e5	3.57e5	1.18e5	1.49e5
fbl	DRSC11886		14698		5072	
CG12075	DRSC17801		2147	5205	808	2022
CG31365	DRSC15610		3778	9209	1961	3680
lncRNA:CR32835	DRSC22693		8.87e5	8.72e5	4.34e5	1.55e5
Rpt6	DRSC20571		2225	6876	598	2544
Rpn12	DRSC11275		3866		1459	
Lk6	DRSC12867		3196		1722	
Lk6	DRSC16728		5880		2787	
CG10163	DRSC09710		923	7249	954	3232
CG12448	DRSC01967		3141	7681	896	2845
CG7083	DRSC11136		1364	5545	976	2672
CG33155 + mRpL53	DRSC05461		18445		12000	
Pak3	DRSC15017		2455	2916	1148	1625
CG8673	DRSC03105		2249	7538	842	3880
alpha-Est6	DRSC12618		3648		832	
CG4891	DRSC01936		7491		2427	
CG7024	DRSC18414		18858		7658	
CG7407	DRSC11824		7669		3090	
CG34204	DRSC03897		16668		8371	
Crz	DRSC16615		19619		3681	
CG3703	DRSC18172		31123		16295	
CG3703	DRSC18173		18987		13866	
CG3703	DRSC18643		22528		13648	
CG17477	DRSC15239		17271		3434	
CG14657	DRSC12219		12685		4784	
CG14657	DRSC12243		3832		736	
Sec20	DRSC12295	Wg reporter activity lowered (active)	7261		3927	
CG6836	DRSC10722		5792		2471	
MICU3	DRSC13381		4549		2240	
MICU3	DRSC15613		4065	6205	1901	2496
Taldo	DRSC04320		8790		2690	
Ziz	DRSC02506		2801	6877	736	2580
Ziz	DRSC02976		2419	4982	752	1952
CG32264	DRSC08061		3400		858	
CG32264	DRSC08167		4267		2521	
CG32264	DRSC08169		3808		2216	
CG32264	DRSC08285		9691		3699	
CG32264	DRSC08437	Wg reporter activity raised	5175		1108	
Rab2	DRSC05017		13945		4007	
CG18547	DRSC15345		19488		4592	
CG15155	DRSC02456		2118	6969	1113	2657
Obp99d	DRSC15046		4758		2224	
Cpr67B	DRSC10373		8023		2983	
eIF3b	DRSC06900		6545		1772	
CG17726	DRSC15255		4202		1577	
cue	DRSC08248		16256		4199	
CG42821	DRSC13231		4336		1811	
CG17105	DRSC02574		2404	7328	1164	3561
CG42249	DRSC19383		22296		9819	
CG42249	DRSC19826		12624		8619	
RhoGEF2	DRSC07531		15445		4970	
CG33474	DRSC05218		18056		14594	
CG5708	DRSC02881		3459	8442	1044	3618
SPARC	DRSC14123		9428		2406	
